In ChEMBL document CHEMBL4330060, “Design and development of some phenyl benzoxazole derivatives as a potent acetylcholinesterase inhibitor with antioxidant property to enhance learning and memory” (Eur J Med Chem, 2019):

Test: in vitro
Conditions: PAMPA, pH 7.4

SMILES: COc1cc2c(cc1OC)C(=O)C(CC1CCN(Cc3ccccc3)CC1)C2 (stereo unspecified) [DONEPEZIL]
- Papp at 18 h: 7.54 ×10⁻⁶ cm/s
